Source: PubChem BioAssay
Inconclusive means that the source gave no clear call. Such entries were picked first, then a sample of the others. For part of these data: Where the call is inconclusive, the potency comes from a doubtful curve fit. The source made the active and inactive calls. Unless noted, the limit is not given here; nearly all actives have AC50 up to about 26 µM.

Assays:
[1] = growth inhibition of DIPG glioma cells, dose response, cell-based, SU-DIPG-XVII, MIPE5.0, CellTiter-Glo, qHTS (AID 1347060); conditions: SU-DIPG-XVII viability, CellTiter-Glo ATP luminescence;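 also: cells exposed to compound for 48 hours before viability readout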
[2] = growth inhibition of DIPG glioma cells, dose response, cell-based, SU-DIPG-XIII, MIPE4.0, CellTiter-Glo, qHTS (AID 1347061; cut-off not given, nearly all actives have AC50 up to about 37 µM;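 also: cells exposed to compound for 48 hours before readout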); conditions: SU-DIPG-XIII viability, CellTiter-Glo ATP luminescence
[3] = growth inhibition of DIPG glioma cells, dose response, cell-based, JHH-DIPG-1, MIPE4.0, CellTiter-Glo, qHTS (AID 1347062; cut-off not given, nearly all actives have AC50 up to about 27 µM;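 as to AC50: cells exposed to compound for two days before readout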); conditions: JHH-DIPG-1 viability, CellTiter-Glo ATP luminescence
[4] = growth inhibition of DIPG glioma cells, dose response, cell-based, SU-DIPG-XIII, MIPE5.0, CellTiter-Glo, qHTS (AID 1347064; cut-off not given, nearly all actives have AC50 up to about 23 µM;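 as to AC50: cells exposed to compound for 48 hours before the viability read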); conditions: SU-DIPG-XIII viability, CellTiter-Glo ATP luminescence
[5] = viability loss in pontine glioma line – cell-based, SU-DIPG-XXV, MIPE5.0, CellTiter-Glo, qHTS, dose response (AID 1347065); conditions: CellTiter-Glo ATP luminescence;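 also: cells exposed to compound for 48 hours before ATP readout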
[6] = JHH-DIPG-1 glioma cell viability, MIPE5.0 library, CellTiter-Glo luminescence, qHTS (AID 1347067); conditions: JHH-DIPG-1 glioma viability, CellTiter-Glo ATP luminescence;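 also: cells exposed to compound for 48 hours before readout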
[7] = SU-DIPG-XXV glioma cell viability, MIPE5.0 library, qHTS (AID 1347068; cut-off not given, nearly all actives have IC50 up to about 30 µM;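 as to IC50: cells exposed to compound for 48 hours before viability readout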)
[8] = SU-DIPG-VI glioma cell viability, MIPE4.0 library, CellTiter-Glo luminescence, qHTS (AID 1347066; cut-off not given, nearly all actives have AC50 up to about 30 µM;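 also: cells exposed to compound for 48 hours before readout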); conditions: CellTiter-Glo ATP luminescence
[9] = inhibitors of polyQ aggregate elongation, biochemical, solid-phase synthetic aggregates, QA3 (AID 1585; call rule not given here); conditions: biotin-polyQ incorporation, at 100 µM, stronger effect = higher value
[10] = polyglutamine aggregation reduction, turbidity readout, qthio, single concentration 25 µM screen (AID 1588; call rule not given here); conditions: at 25 µM, stronger effect = lower value
[11] = protection of motor neurons from glutamate death, cell-based, TUNEL DNA degradation staining, MNGlu (AID 1594; call rule not given here); conditions: glutamate-induced death, at 1 µM, stronger effect = higher value
[12] = enhancers of SMN2 over SMN1 splicing, cell-based, SMN2/SMN1 luciferase reporters (AID 1598; call rule not given here); conditions: SMN2 vs SMN1 luciferase splicing reporter cells; at 10 µM; stronger effect = higher value
[13] = growth inhibition of DIPG glioma cells, dose response, cell-based, SU-DIPG-IV, MIPE4.0, CellTiter-Glo, qHTS (AID 1347063; cut-off not given, nearly all actives have AC50 up to about 30 µM;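 also: compound exposure lasted 48 hours before the viability readout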); conditions: SU-DIPG-IV viability, CellTiter-Glo ATP luminescence

CC1(CN2CCC(n3c(=O)[nH]c4ccccc43)CC2)OCc2ccccc2-n2cccc21 (stereo not given)
inactive: outcome [3] | outcome [7]
inconclusive: AC50 [1] 18.6 µM [cytotoxic] | AC50 [2] 20.9 µM [cytotoxic] | AC50 [4] 23.5 µM [cytotoxic] | AC50 [5] 1.32 µM [cytotoxic] | AC50 [6] 37.2 µM [cytotoxic]

CCCCOc1c(C(=O)c2c(F)cc(C)cc2F)cnc2n[nH]cc12
active: IC50 [7] 3.72 µM
inactive: outcome [2]
inconclusive: AC50 [1] 2.63 µM [cytotoxic] | AC50 [3] 5.26 µM [cytotoxic] | AC50 [4] 2.35 µM [cytotoxic] | AC50 [8] 2.96 µM [cytotoxic] | AC50 [6] 2.63 µM [cytotoxic]

CCC(C)CCCCC(=O)N[C@@H](CCN)C(=O)NC(C(=O)N[C@H](CCN)C(=O)N[C@@H]1CCNC(=O)C([C@@H](C)O)NC(=O)[C@@H](CCN)NC(=O)[C@@H](CCN)NC(=O)[C@@H](CC(C)C)NC(=O)[C@H](Cc2ccccc2)NC(=O)[C@H](CCN)NC1=O)[C@@H](C)O (stereo not given in full)
inconclusive: AC50 [1] 0.00662 µM | outcome [4]
inactive: outcome [2] | outcome [3] | outcome [6] | outcome [7]

FC(F)c1nc2ccccc2n1-c1nc(N2CCOCC2)nc(N2CCOCC2)n1
active: AC50 [1] 0.742 µM | AC50 [4] 0.833 µM | AC50 [8] 3.32 µM
inconclusive: AC50 [2] 0.833 µM [cytotoxic] | AC50 [3] 0.235 µM [cytotoxic] | IC50 [7] 0.661 µM [cytotoxic]

O=c1c(-c2ccc(O)cc2)coc2cc(O)ccc12
inactive: outcome [2] | outcome [3] | outcome [6]
inconclusive: inhibition [9] 1.44% | aggregation (% of control) [10] 110% | protection [11] 1% | SMN2/SMN1 luciferase ratio [12] 0.98 | AC50 [1] 11.8 µM [cytotoxic] | AC50 [4] 2.95 µM [cytotoxic] | AC50 [5] 13.2 µM [cytotoxic]

CNC(=O)c1cccc(-c2ccc3c(N4CCOC[C@@H]4C)nc(N4CCOC[C@@H]4C)nc3n2)c1
inconclusive: AC50 [2] 1.87 µM [cytotoxic] | AC50 [3] 0.264 µM [cytotoxic] | AC50 [8] 23.5 µM [cytotoxic] | AC50 [6] 0.59 µM [cytotoxic] | IC50 [7] 16.6 µM
active: AC50 [1] 1.32 µM

Cn1cc(-c2ccc3nnc(C(F)(F)c4ccc5ncccc5c4)n3n2)cn1
inconclusive: AC50 [1] 8.33 µM [cytotoxic] | AC50 [13] 20.9 µM [cytotoxic] | AC50 [4] 0.295 µM | AC50 [8] 23.5 µM [cytotoxic]
inactive: outcome [2] | outcome [5]

CC(C)NC[C@@H](C(=O)N1CCN(c2ncnc3c2[C@H](C)C[C@H]3O)CC1)c1ccc(Cl)cc1
inconclusive: AC50 [1] 14.8 µM [cytotoxic] | AC50 [6] 2.63 µM [cytotoxic] | IC50 [7] 2.63 µM [cytotoxic]
active: AC50 [2] 11.8 µM | AC50 [3] 23.5 µM | AC50 [8] 2.64 µM

CN[C@H]1CCc2cc(OC)c(OC)c(OC)c2-c2ccc(OC)c(=O)cc21
inconclusive: AC50 [2] 0.0372 µM [cytotoxic] | AC50 [13] 0.00132 µM [cytotoxic] | AC50 [8] 0.0332 µM [cytotoxic]
active: AC50 [1] 0.105 µM | AC50 [4] 0.132 µM | AC50 [5] 0.166 µM
